From US6710090B2, “Inhibitory or blocking agents of molecular generating and/or inducing functions” (priority 1994, dated 2004)

Test system: NADPH, cytochrome C, heme and aromatic amino acids in defibrinized human blood serum
Experiment: Effect on NADPH, heme and cytochrome C, infrared spectrophotometer
Assay type: biochemical
Conditions: 4 μl of Yoshixol

C=C1CC(C)(C)C=CC1=O [Yoshixol, 4,4-dimethyl-6-methylene-2-cyclohexen-1-one]
concentration of NADPH, cytochrome C and heme (1 μl defibrinized human blood serum, 340, 415, 520, 550 nanometer): did not alter | characteristic peak of wave length with amino acids (aromatic amino acids 280 nanometer): disappeared and shifted to lower wave length
